Measured values reported in article PMC5110245, “Identification and reconstitution of the rubber biosynthetic machinery on rubber particles from Hevea brasiliensis” (eLife, 2016).
Results are given in words; binding and its absence hold for the method and conditions named. For some of these results: Binding seen in cells or lysates may run through a third protein. Some results given as binding are weak or reduced against the parent protein; the word gives no strength. Sequences can lack the tags named with a protein. Values belong to the binder of their own block, whether it stands above or below them.

What was measured:
[1] = biological target: HRT2 (cis-prenyltransferase from Hevea brasiliensis), split-ubiquitin Y2H fusion (Hevea brasiliensis) (UniProt Q8W3U4); experiment: two-hybrid; split-ubiquitin-based Y2H (DUALmembrane Kit 3), pairwise; S. cerevisiae NMY51; bait in pBT3-SUC (Cub-LexA-VP16), prey in pPR3-N (NubG); growth of dilution series on SD(-WL), SD(-WLH), SD(-WLHAde) and SD(-WLHAde) with 1 mM 3-AT, 30°C
[2] = biological target: T1, Small rubber particle protein (SRPP) from Hevea brasiliensis, split-ubiquitin Y2H fusion (Hevea brasiliensis) (UniProt O82803); experiment: as above
T1 sequence: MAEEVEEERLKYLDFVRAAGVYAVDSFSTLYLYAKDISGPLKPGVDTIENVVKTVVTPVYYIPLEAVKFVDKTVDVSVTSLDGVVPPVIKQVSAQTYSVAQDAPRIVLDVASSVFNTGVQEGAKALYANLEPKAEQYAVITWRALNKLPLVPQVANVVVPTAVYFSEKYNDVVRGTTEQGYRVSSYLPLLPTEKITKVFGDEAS

[3] = biological target: Rubber elongation factor (REF) from Hevea brasiliensis, split-ubiquitin Y2H fusion (Hevea brasiliensis) (UniProt P15252); experiment: as above
[4] = biological target: Rubber elongation factor (REF) fused to a split mVenus fragment (BiFC) (Hevea brasiliensis) (UniProt P15252); experiment: split reporter; BiFC with split mVenus fragments (pDOE-05 or pDOE-07) in agroinfiltrated N. benthamiana leaf epidermal cells, confocal microscopy 2 days after infiltration; also with REF:mCherry co-expressed (Figure 4B)

binding [1]: no binding
B1: HRT2 (cis-prenyltransferase from Hevea brasiliensis), split-ubiquitin Y2H fusion (enzyme, UniProt Q8W3U4 1-284)
chain: MELYNGERPSVFRLLGKYMRKGLYSILTQGPIPTHIAFILDGNGRFAKKHKLPEGGGHKAGFLALLNVLTYCYELGVKYATIYAFSIDNFRRKPHEVQYVMNLMLEKIEGMIMEESIINAYDICVRFVGNLKLLDEPLKTAADKIMRATAKNSKFVLLLAVCYTSTDEIVHAVEESSKDKLKSDEICNDGNGDCVIKIEEMEPYSEIKLVELERNTYINPYPDVLIRTSGETRLSNYLLWQTTNCILYSPHALWPEIGLRHVVWAVINCQRHYSYLEKHKEYLK

binding [2]: binds
binding [3]: binds
B2: Rubber elongation factor (REF) from Hevea brasiliensis, split-ubiquitin Y2H fusion (protein, UniProt P15252 1-138)
chain: MAEDEDNQQGQGEGLKYLGFVQDAATYAVTTFSNVYLFAKDKSGPLQPGVDIIEGPVKNVAVPLYNRFSYIPNGALKFVDSTVVASVTIIDRSLPPIVKDASIQVVSAIRAAPEAARSLASSLPGQTKILAKVFYGEN

binding [4]: binds
B3: Rubber elongation factor (REF) fused to a split mVenus fragment (BiFC) (protein, UniProt P15252 1-138)
chain: B2 chain
